# The list shows only some results of the screen, not a fair sample: it is rich in T/C values a quarter to a half above the control, in often repeated tests (any T/C) and in doses without a T/C. Further doses and runs are listed elsewhere. T/C gives the treated animals as a percentage of the vehicle group. Some doses have a count of surviving animals in place of a T/C: the source files T/C as zero there, which appears to mark a toxic dose or a test without result, not a measured value. Some survivor counts are full or nearly so, which does not show that the dose was tolerated: survival well below the control is almost never listed, so the zero probably covers shortened survival too. Survivors were counted at the toxicity check, usually on the fifth day, unless a day is given; later deaths do not show. Schedule codes are those of the source, taken here to give the interval after Q, in days (D) or hours (H), and the number of doses after X. Some entries were tested several times; the values are given in rising order. Where survival is the endpoint, the PubChem record calls one and a half times the control and up active, and a quarter to a half above the control has no call in these data; cut-offs in other NCI protocols can differ. Some T/C values carry the count of animals alive at the toxicity check (mostly the fifth day); where none is given, no animal had died by that day.
# Tested on: CD2F1 mice, L1210 leukemia ip, survival T/C
# Experiment: NCI In Vivo Anticancer Drug Screen. Data for tumor model L1210 Leukemia (intraperitoneal) in CD2F1 (CDF1) mice
# Conditions: higher T/C = longer survival
# How it was run: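 Antitumor effect is scored in animals hosting a serially transplanted tumor. Values compare compound-dosed animals against vehicle-only controls as a simple quotient.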
smiles,measurement,setting,value
CC1=NCCCN=C(C)CC[N-]CCC[N-]CC1.[Ni+2].[O-][Cl+3]([O-])([O-])O,survivor count,"T/C endpoint: mean survival time, dose: 200.0 mg/kg/injection, schedule: Q04DX002 (ip), vehicle: saline",1 of 3
same,survivor count,"T/C endpoint: mean survival time, dose: 400.0 mg/kg/injection, schedule: Q04DX002 (ip), vehicle: saline",0 of 3
O=C(O)CCCc1ccc(N(CCCl)CCCl)cc1,T/C,"T/C endpoint: mean survival time, dose: 8.0 mg/kg/injection, schedule: Q03HX024 (ip), vehicle: other",128 % of control
same,T/C,"T/C endpoint: mean survival time, dose: 12.5 mg/kg/injection, schedule: Q01DX009 (ip), vehicle: saline",127 % of control
same,T/C,"T/C endpoint: mean survival time, dose: 15.0 mg/kg/injection, schedule: Q01DX007 (ip), vehicle: saline with Tween-80",142 % of control
same,T/C,"T/C endpoint: mean survival time, dose: 15.0 mg/kg/injection, schedule: Q01DX009 (ip), vehicle: saline with Tween-80",136 % of control
same,T/C,"T/C endpoint: mean survival time, dose: 16.0 mg/kg/injection, schedule: Q01DX009 (ip), vehicle: Klucel (hydroxypropylcellulose) (HPC)",125 % of control
same,T/C,"T/C endpoint: mean survival time, dose: 16.0 mg/kg/injection, schedule: Q01DX009 (ip), vehicle: other",148 % of control
same,T/C,"T/C endpoint: mean survival time, dose: 16.0 mg/kg/injection, schedule: Q03HX008 (ip), vehicle: other",132 % of control [9 of 10 alive]
same,survivor count,"T/C endpoint: mean survival time, dose: 16.0 mg/kg/injection, schedule: Q03HX024 (ip), vehicle: other",7 of 10
same,T/C,"T/C endpoint: mean survival time, dose: 20.0 mg/kg/injection, schedule: Q01DX009 (ip), vehicle: saline with Tween-80",128 % of control
same,T/C,"T/C endpoint: mean survival time, dose: 30.0 mg/kg/injection, schedule: Q01DX007 (ip), vehicle: saline",135 % of control
same,survivor count,"T/C endpoint: mean survival time, dose: 30.0 mg/kg/injection, schedule: Q01DX009 (ip), vehicle: saline with Tween-80",3 of 6
same,T/C,"T/C endpoint: mean survival time, dose: 30.0 mg/kg/injection, schedule: Q03DX003 (ip), vehicle: saline",138 % of control
same,survivor count,"T/C endpoint: mean survival time, dose: 32.0 mg/kg/injection, schedule: Q01DX009 (ip), vehicle: other",10 of 10
same,survivor count,"T/C endpoint: mean survival time, dose: 32.0 mg/kg/injection, schedule: Q01DX009 (ip), vehicle: saline with Tween-80",1 of 6
same,survivor count,"T/C endpoint: mean survival time, dose: 32.0 mg/kg/injection, schedule: Q01DX009 (sc), vehicle: other",10 of 10
same,T/C,"T/C endpoint: mean survival time, dose: 32.0 mg/kg/injection, schedule: Q04DX003 (ip), vehicle: saline with Tween-80",134 % of control [5 of 6 alive]
same,survivor count,"T/C endpoint: mean survival time, dose: 50.0 mg/kg/injection, schedule: Q01DX009 (ip), vehicle: Klucel (hydroxypropylcellulose) (HPC)",0 of 6
same,survivor count,"T/C endpoint: mean survival time, dose: 60.0 mg/kg/injection, schedule: Q01DX007 (ip), vehicle: saline with Tween-80",0 of 6
same,survivor count,"T/C endpoint: mean survival time, dose: 60.0 mg/kg/injection, schedule: Q01DX009 (ip), vehicle: saline with Tween-80",0 of 6
same,survivor count,"T/C endpoint: mean survival time, dose: 64.0 mg/kg/injection, schedule: Q01DX001 (ip), vehicle: saline with Tween-80",1 of 6 and 3 of 6
same,survivor count,"T/C endpoint: mean survival time, dose: 64.0 mg/kg/injection, schedule: Q01DX009 (ip), vehicle: other",0 of 10
same,survivor count,"T/C endpoint: mean survival time, dose: 64.0 mg/kg/injection, schedule: Q01DX009 (oral), vehicle: other",4 of 10
same,survivor count,"T/C endpoint: mean survival time, dose: 64.0 mg/kg/injection, schedule: Q01DX009 (sc), vehicle: other",6 of 10
same,survivor count,"T/C endpoint: mean survival time, dose: 64.0 mg/kg/injection, schedule: Q04DX003 (ip), vehicle: other",10 of 10
same,survivor count,"T/C endpoint: mean survival time, dose: 64.0 mg/kg/injection, schedule: Q04DX003 (ip), vehicle: saline with Tween-80",5 of 6
same,survivor count,"T/C endpoint: mean survival time, dose: 100.0 mg/kg/injection, schedule: Q01DX009 (ip), vehicle: Klucel (hydroxypropylcellulose) (HPC)",0 of 6
same,survivor count,"T/C endpoint: mean survival time, dose: 128.0 mg/kg/injection, schedule: Q01DX001 (ip), vehicle: other",0 of 10
same,survivor count,"T/C endpoint: mean survival time, dose: 128.0 mg/kg/injection, schedule: Q01DX001 (ip), vehicle: saline with Tween-80",0 of 6
same,survivor count,"T/C endpoint: mean survival time, dose: 128.0 mg/kg/injection, schedule: Q01DX001 (oral), vehicle: other",3 of 10
same,survivor count,"T/C endpoint: mean survival time, dose: 128.0 mg/kg/injection, schedule: Q01DX001 (sc), vehicle: other",3 of 10
same,survivor count,"T/C endpoint: mean survival time, dose: 128.0 mg/kg/injection, schedule: Q04DX003 (ip), vehicle: other",1 of 10
same,survivor count,"T/C endpoint: mean survival time, dose: 128.0 mg/kg/injection, schedule: Q04DX003 (oral), vehicle: other",5 of 10
same,survivor count,"T/C endpoint: mean survival time, dose: 128.0 mg/kg/injection, schedule: Q08DX002 (ip), vehicle: other",0 of 10
same,survivor count,"T/C endpoint: mean survival time, dose: 200.0 mg/kg/injection, schedule: Q01DX009 (ip), vehicle: Klucel (hydroxypropylcellulose) (HPC)",0 of 6
same,survivor count,"T/C endpoint: mean survival time, dose: 256.0 mg/kg/injection, schedule: Q01DX001 (ip), vehicle: saline with Tween-80",0 of 6
same,T/C,"T/C endpoint: median survival time, dose: 12.5 mg/kg/injection, schedule: Q01DX009 (ip), vehicle: saline",128 % of control
same,survivor count,"T/C endpoint: median survival time, dose: 25.0 mg/kg/injection, schedule: Q01DX009 (ip), vehicle: saline",0 of 6 and 1 of 6
